For 105 sequences, z-score results are on record in PubChem BioAssay AID1347423 (Functional Genomics Laboratory (NCATS/FGL), 2020).

Among all 52,000 sequences or so, about 210 (0.4%) were called active.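 How the source made its calls: active means gene whose silencing raises cell survival under the drug, median off-target-corrected z-score across its silencing RNAs 2 or more; inactive means the rest.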 Some of the results follow.

This assay can be described thus: Resistance to Poly (ADP-Ribose) Polymerase inhibitor: Gene Identification via Genome-wide siRNA Screen. The note with it: mouse BRCA2 R2336H ES cells, olaparib, CellTiter-Glo viability; active compounds read high. A digest of the protocol: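 Mouse BRCA2 R2336H ES cells were reverse-transfected with siRNA (20 nM final), treated at 48 h with 500 nM olaparib, and read by CellTiter-Glo after 72 h. Scores: MAD-based z per siRNA, median per gene, seed off-target correction.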
In general terms: In ATP-based viability assays light output follows the ATP content of the culture.
On to GGUAUUCCCUAGAGAUAAATT against Olfr1241, for which the z-score was inactive: -0.111. Turning to CGAAACACUCAAGGUUGUATT against Creb3l2, the z-score was inactive: 0.177. Take GCAUGACAGGAAACUCUCUTT against Olfr1308: the z-score was inactive: 0.0733. Consider GGGUGUAGCAUUGUCACAGTT against Olfr1133, for which the z-score is inactive: -0.186. As for GGAACCUUUGAGAAUAUGATT against Spats2, the z-score is inactive: 0.149. Next, GCUAUAGGAACCUUCAGAGTT against Dtr: inactive: 0.872; GGAGUACACGUUCAUCAUCTT against Clstn2: inactive: 0.743. The value for GGACUUUCGUCGUACUCGUTT against Terf1 was inactive: 0.655; that for GGCCUGCUUUGUUCUGAAUTT against Olfr846 was inactive: 0.0902. The value for CCUGCUUUCUCUAUACCUATT against BC030867 was inactive: -2.38; that for CCUAAUUAUAACCCUGACCTT against Olfr845 was inactive: 0.554. On to “GGAUUUGACCGGCUAAUACTT against 0610009C03Rik”, for which the z-score is inactive: -2.05. Regarding GCGAUUGUCCAAGAAUUCCTT against Crcp, the z-score was inactive: 1.36. Next, UCACCUACAGCGGAUCUCATT against Oxt: inactive: 0.294; “CCAACACGUUGCACAGAGUTT against A830073O21Rik”: inactive: -1.75; CGGACCUACAAACAAUAACTT against Ccl9: inactive: 0.0303. The value for CCAUUGUGAUCAAGAUAAATT against Cggbp1 was inactive: 0.591; that for CGUUCCAUCUCUAACUGGATT against Rhox3 was inactive: 0.271; that for GGAUCUACAUUGCUAAAGUTT against Dbil5 was inactive: 0.918. Next, CCUGAGAUGAUAAUCCUGCTT against Sprr2i: inactive: 0.288; GGUUAUCUUGAAUAAAGCUTT against Zfp346: inactive: 1.79; GGAAAAAGAUUGAGGAAGUTT against Uhrf1: inactive: -0.647. Regarding UCGGCCAUGUAGUAUGGGATT against Xlr3a, the z-score is inactive: -0.822.

On to GGACAUUAACGAGCUGAACTT against Ube2m, for which the z-score was inactive: 0.791. Take GCCCUUCGAAUGUGUAAGGTT against LOC328644: the z-score was inactive: 0.0887.

In the case of “GGAGCUAGAGUUUUCACUATT against 2500003M10Rik”, the z-score was inactive: 0.943. In the case of CCGUAUAAGUUUACGUUUATT against Tm9sf2, the z-score was inactive: 0.118.

As to GGCUAACCAGAGGAAAAACTT against Rph3a, the z-score is inactive: -0.186. In the case of CCAAGUAAGGACUAUAGAGTT against Gpatc2, the z-score was inactive: 0.312. The value for GGGAAGUUCAUAUUGAUCCTT against Gsdm1 was inactive: -0.71; that for GCCUGAAUCCGCCACAUUGTT against Cx3cl1 was inactive: -2.13. For the sequence GGUAACCUUGGAGAAGGUCTT against Mapkbp1, the z-score is inactive: 0.348.

“GGUGGAUUCUUUCUCCUUCTT against 4833415N24Rik”: the z-score is inactive: 1.65.

GGGCAAUCCUGAAUUGGUUTT against Atp2b4: the z-score is inactive: -0.698. Next, GGGUUUCUGGGACUUCACCTT against Bgn: inactive: 0.372. For the sequence GGAGUUCAAAGAUGCAAUUTT against Zfyve27, the z-score was inactive: 1.25. With “GGCAACAAAUGCUGUGUAATT against 2610301B20Rik”, the z-score was inactive: -1.09. On to CCAAGUAUGCUAGCAUGAUTT against Ndufa3, for which the z-score is inactive: -1.7. As to GGUACACAGUCAUAAUGAGTT against Olfr975, the z-score is inactive: 0.161. For the sequence CGACAUAUCCUUCUUUUCUTT against Ppic, the z-score is inactive: 0.542. The value for GCUUGCUCACUCUAGUACUTT against Olfr937 was inactive: 1.95. Next, UACCUUUAGCGCGCUUCCUTT against Oxt: inactive: -0.109. As to GGAAUGGAGUUUGGUUUUGTT against Extl1, the z-score is inactive: 3.43. On to “GCUUAAGUGCAGGGACCUATT against 4930519N13Rik”, for which the z-score was inactive: 0.873. Next, GGUCUCAUAGAGUGUUACUTT against Anapc7: inactive: 0.289. The value for GCUUAGCUGUUAUGUUUUUTT against Atp6ap1 was inactive: -0.399. Next, GGUGAUUAUUUUGUCAGCCTT against Olfr1228: inactive: 0.681; CCAGUGGUCAUUCUUGUCUTT against Olfr1076: inactive: 0.844. On to GGGUUCUGUGUAAAUGUAUTT against Gzma, for which the z-score is inactive: 0.291.

Consider CCUGAUUCAAAUGCUCUCCTT against BC034204, for which the z-score was inactive: 0.0244. The value for GGUCAAUUGCACCUGGAACTT against Snx19 was inactive: -0.832; that for CGAAGAAAACCAUAAGGACTT against Bdnf was inactive: -0.738. With GGACUGGUUUGACUUUAAATT against Oasl1, the z-score is inactive: -1.33.

Turning to GGCUCAGCACUUUCCUAAUTT against Ifnab, the z-score was inactive: -0.0748.

Consider GGAUACUUGAUGAACUUUGTT against Tmem16b, for which the z-score was inactive: -1.39.

Consider GGCUGUAGUUCUCACUGUGTT against Olfr902, for which the z-score was inactive: 0.822. Turning to GGCAGUUUGGUUUUUUUUGTT against Galnt7, the z-score was inactive: 1.76. As for CGACAAACUACAUAGCAGATT against Brms1, the z-score was inactive: 0.0865. As to “CCGUUUUGUCUGAAUUCCCTT against 4930515G01Rik”, the z-score was inactive: -2.55. The value for GGCUAAGACCAAAACUUUATT against Cyp4f13 was inactive: 0.252.

As to GGAAUGCAUCACAAAACUUTT against Lancl2, the z-score was inactive: 0.362. On to “GCCUCACUCAGCAAAAGGATT against 2210019E14Rik”, for which the z-score was inactive: -2.52. For the sequence CGCGGUCAUCUUUGUCUUCTT against Centg2, the z-score is inactive: -0.317.

GCCAUCUACUUUGUUAUAGTT against Kcnk4: the z-score was inactive: 1.46.

As for “GGAAAAGAAAGACUUUUGCTT against 5832424M12”, the z-score was inactive: 0.787. In the case of GGACGGGCUUCUAGUUGAATT against V1rh2, the z-score was inactive: -0.288. Next, ACUGGCCGGGAUUACAGAUTT against Ang3: inactive: -0.442.

For GCUUGCUCAGGGAUUUUUATT against Rb1cc1, the z-score was inactive: 0.265.

For GGAAAGAAGCCAAAGAAAUTT against Spata4, the z-score was inactive: -1.17.

Consider CCCGAGAAUACACCAUCAATT against Rpl31, for which the z-score was inactive: -2.59. The value for “GGACCAGAGGAAGAUUCCCTT against 1700020D05Rik” was inactive: 0.463; that for “GGUGUAAGACGUGUGGAGATT against 2900016D05Rik” was inactive: 1.45; that for CGAGGAUUACAGAGGAAACTT against Dutp was inactive: -0.409. Next, GGACAAGGCUGCUACUUCATT against Pou6f2: inactive: -0.217. On to GGAAAGUUGUGAACUCUAATT against Olfr1157, for which the z-score was inactive: -1.77. Consider GGAAGUGUGGACGAAUAAATT against BC019561, for which the z-score is inactive: -1.17.

In the case of GGUGCUCCCUGCAUACUAUTT against Ngp, the z-score is inactive: 0.177.

Take GGACAUCCAGACCAAUGUCTT against Psmd8: the z-score was inactive: -2.52. With GGAUGGAGAUUAUGAAGAGTT against Pcsk9, the z-score was inactive: 0.613. With CCGUCUAUGUAUCGGUGUUTT against Gpr10, the z-score is inactive: 0.404.

Take GGGAGAGGCACAAAGCAUATT against Ubxd3: the z-score was inactive: 1.27.

In the case of “CGAAGACACCGAUAUUUCUTT against E130304D01”, the z-score is inactive: -0.0405. Next, CGGUGACGACGGAAUUCUATT against Cpne4: inactive: 0.347; CGAAGUCAAGCAGAAAAGATT against C1qtnf1: inactive: -0.687; GCCAGAGUUUAUUAACUGCTT against Stxbp6: inactive: -0.26. As for CCUAAAUUUGACUGUGCCUTT against Nudt10, the z-score is inactive: 0.593. “CCUCUCUAGGCUAUAACUATT against 4933428G20Rik”: the z-score was inactive: -1.15. Next, UACUGAUUCUGCUGGACUCTT against Olfr1474: inactive: -1.5; GGUACUACUUCCUUUGGAATT against Slc38a2: inactive: 1.35.

GGUUAUUUUGUUGGAAGUCTT against BC035295: the z-score is inactive: -1.61.

GGACUCUUUAGCACAAACUTT against Tlr11: the z-score is inactive: 0.636. GGCAAGGAUAUAAAUUCACTT against Mak: the z-score is inactive: 0.148. For the sequence GCAGGAGGUUUAUACAGCCTT against Spata5, the z-score was inactive: -0.071.

As for GCACCCACGAUUAUUGGAATT against Pyp, the z-score is inactive: 0.219. Next, GGUUGAUUUCCUGUUUCUGTT against Casp7: inactive: 0.0188; “GCUAUACGAAGACUUCAGCTT against 2810435D12Rik”: inactive: 1.02. Next, CCCUAUUUGUCAGCGGUCUTT against Rbpms: inactive: 1.02; CCUGAUGCACUACUCGUCUTT against Otx3: inactive: 1.45; GGAGCAGAUUAAAUCCCUGTT against Krt2-8: inactive: 1.25. Next, “GCAAUGUCUAUUCAAGGUUTT against 1100001I19Rik”: inactive: 0.344; CCAGCUCUGUACUAAUCCUTT against Nol3: inactive: 0.147. For GGAUUUUUCAGAUUCUAGATT against Hs6st2, the z-score is inactive: 0.598. In the case of “GGACUUUUAUUAUUUCCCGTT against D15Bwg0669e”, the z-score was inactive: -0.393. Regarding GGAGUUUUACUUUUCUCUCTT against Cldn23, the z-score is inactive: 0.865. With CCAUCUACAAACUUUGGCCTT against Sacs, the z-score is inactive: -0.228.
